Measurements: article doi:10.1101/850776
No constants are given. Whether binding was seen depends on the method and setting. Binding seen in cells or lysates may run through a third protein. These calls come from enrichment with a bait or labelling near it, and not all partners need be listed. Sequences can lack the tags named with a protein.

T1: GFP-tagged mouse RHBDL4-SA (catalytically inactive serine-144-alanine mutant) (mouse) (UniProt Q8BHC7)
T1 sequence: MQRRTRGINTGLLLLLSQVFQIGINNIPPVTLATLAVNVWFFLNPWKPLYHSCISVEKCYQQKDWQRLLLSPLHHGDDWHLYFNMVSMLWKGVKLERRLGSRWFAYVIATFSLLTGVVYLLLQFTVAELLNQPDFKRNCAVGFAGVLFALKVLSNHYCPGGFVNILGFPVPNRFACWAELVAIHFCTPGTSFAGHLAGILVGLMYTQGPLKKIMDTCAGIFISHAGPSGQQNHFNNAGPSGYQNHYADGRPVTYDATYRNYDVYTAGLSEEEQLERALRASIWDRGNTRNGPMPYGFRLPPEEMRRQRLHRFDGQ

T2: GFP-tagged mouse RHBDL4-SA-UIM double mutant (SAUM) (mouse) (UniProt Q8BHC7)
T2 sequence: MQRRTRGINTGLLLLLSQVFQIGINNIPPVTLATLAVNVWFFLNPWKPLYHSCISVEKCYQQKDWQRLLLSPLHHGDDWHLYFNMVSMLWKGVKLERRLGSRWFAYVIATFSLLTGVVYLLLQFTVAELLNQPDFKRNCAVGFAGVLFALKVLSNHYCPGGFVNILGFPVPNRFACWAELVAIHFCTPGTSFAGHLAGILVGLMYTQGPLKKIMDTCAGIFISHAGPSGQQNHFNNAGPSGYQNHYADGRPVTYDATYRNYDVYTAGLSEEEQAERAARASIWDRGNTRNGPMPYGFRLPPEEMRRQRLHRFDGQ


Target: T1, GFP-tagged mouse RHBDL4-SA (catalytically inactive serine-144-alanine mutant) (mouse)
Test: affinity purification with mass spectrometry

binding	Binder
binds	DDOST (protein, UniProt P39656 43-456) SGPRTLVLLDNLNVRETHSLFFRSLKDRGFELTFKTADDPSLSLIKYGEFLYDNLIIFSPSVEDFGGNINVETISAFIDGGGSVLVAASSDIGDPLRELGSECGIEFDEEKTAVIDHHNYDISDLGQHTLIVADTENLLKAPTIVGKSSLNPILFRGVGMVADPDNPLVLDILTGSSTSYSFFPDKPITQYPHAVGKNTLLIAGLQARNNARVIFSGSLDFFSDSFFNSAVQKAAPGSQRYSQTGNYELAVALSRWVFKEEGVLRVGPVSHHRVGETAPPNAYTVTDLVEYSIVIQQLSNGKWVPFDGDDIQLEFVRIDPFVRTFLKKKGGKYSVQFKLPDVYGVFQFKVDYNRLGYTHLYSSTQVSVRPLQHTQYERFIPSAYPYYASAFSMMLGLFIFSIVFLHMKEKEKSD
binds	β-1,4-glucuronyltransferase B4GAT1 (protein, UniProt O43505 1-415) MQMSYAIRCAFYQLLLAALMLVAMLQLLYLSLLSGLHGQEEQDQYFEFFPPSPRSVDQVKAQLRTALASGGVLDASGDYRVYRGLLKTTMDPNDVILATHASVDNLLHLSGLLERWEGPLSVSVFAATKEEAQLATVLAYALSSHCPDMRARVAMHLVCPSRYEAAVPDPREPGEFALLRSCQEVFDKLARVAQPGINYALGTNVSYPNNLLRNLAREGANYALVIDVDMVPSEGLWRGLREMLDQSNQWGGTALVVPAFEIRRARRMPMNKNELVQLYQVGEVRPFYYGLCTPCQAPTNYSRWVNLPEESLLRPAYVVPWQDPWEPFYVAGGKVPTFDERFRQYGFNRISQACELHVAGFDFEVLNEGFLVHKGFKEALKFHPQKEAENQHNKILYRQFKQELKAKYPNSPRRC
binds	STT3B (protein, UniProt Q8TCJ2 1-826) MAEPSAPESKHKSSLNSSPWSGLMALGNSRHGHHGPGAQCAHKAAGGAAPPKPAPAGLSGGLSQPAGWQSLLSFTILFLAWLAGFSSRLFAVIRFESIIHEFDPWFNYRSTHHLASHGFYEFLNWFDERAWYPLGRIVGGTVYPGLMITAGLIHWILNTLNITVHIRDVCVFLAPTFSGLTSISTFLLTRELWNQGAGLLAACFIAIVPGYISRSVAGSFDNEGIAIFALQFTYYLWVKSVKTGSVFWTMCCCLSYFYMVSAWGGYVFIINLIPLHVFVLLLMQRYSKRVYIAYSTFYIVGLILSMQIPFVGFQPIRTSEHMAAAGVFALLQAYAFLQYLRDRLTKQEFQTLFFLGVSLAAGAVFLSVIYLTYTGYIAPWSGRFYSLWDTGYAKIHIPIIASVSEHQPTTWVSFFFDLHILVCTFPAGLWFCIKNINDERVFVALYAISAVYFAGVMVRLMLTLTPVVCMLSAIAFSNVFEHYLGDDMKRENPPVEDSSDEDDKRNQGNLYDKAGKVRKHATEQEKTEEGLGPNIKSIVTMLMLMLLMMFAVHCTWVTSNAYSSPSVVLASYNHDGTRNILDDFREAYFWLRQNTDEHARVMSWWDYGYQIAGMANRTTLVDNNTWNNSHIALVGKAMSSNETAAYKIMRTLDVDYVLVIFGGVIGYSGDDINKFLWMVRIAEGEHPKDIRESDYFTPQGEFRVDKAGSPTLLNCLMYKMSYYRFGEMQLDFRTPPGFDRTRNAEIGNKDIKFKHLEEAFTSEHWLVRIYKVKAPDNRETLDHKPRVTNIFPKQKYLSKKTTKRKRGYIKNKLVFKKGKKISKKTV

Target: T2, GFP-tagged mouse RHBDL4-SA-UIM double mutant (SAUM) (mouse)
Test: affinity purification with mass spectrometry

binding	Binder
binds	STT3A (protein, UniProt P46977 1-705) MTKFGFLRLSYEKQDTLLKLLILSMAAVLSFSTRLFAVLRFESVIHEFDPYFNYRTTRFLAEEGFYKFHNWFDDRAWYPLGRIIGGTIYPGLMITSAAIYHVLHFFHITIDIRNVCVFLAPLFSSFTTIVTYHLTKELKDAGAGLLAAAMIAVVPGYISRSVAGSYDNEGIAIFCMLLTYYMWIKAVKTGSICWAAKCALAYFYMVSSWGGYVFLINLIPLHVLVLMLTGRFSHRIYVAYCTVYCLGTILSMQISFVGFQPVLSSEHMAAFGVFGLCQIHAFVDYLRSKLNPQQFEVLFRSVISLVGFVLLTVGALLMLTGKISPWTGRFYSLLDPSYAKNNIPIIASVSEHQPTTWSSYYFDLQLLVFMFPVGLYYCFSNLSDARIFIIMYGVTSMYFSAVMVRLMLVLAPVMCILSGIGVSQVLSTYMKNLDISRPDKKSKKQQDSTYPIKNEVASGMILVMAFFLITYTFHSTWVTSEAYSSPSIVLSARGGDGSRIIFDDFREAYYWLRHNTPEDAKVMSWWDYGYQITAMANRTILVDNNTWNNTHISRVGQAMASTEEKAYEIMRELDVSYVLVIFGGLTGYSSDDINKFLWMVRIGGSTDTGKHIKENDYYTPTGEFRVDREGSPVLLNCLMYKMCYYRFGQVYTEAKRPPGFDRVRNAEIGNKDFELDVLEEAYTTEHWLVRIYKVKDLDNRGLSRT
binds	RPN1 (protein, UniProt P04843 24-607) ASSEAPPLINEDVKRTVDLSSHLAKVTAEVVLAHLGGGSTSRATSFLLALEPELEARLAHLGVQVKGEDEEENNLEVRETKIKGKSGRFFTVKLPVALDPGAKISVIVETVYTHVLHPYPTQITQSEKQFVVFEGNHYFYSPYPTKTQTMRVKLASRNVESYTKLGNPTRSEDLLDYGPFRDVPAYSQDTFKVHYENNSPFLTITSMTRVIEVSHWGNIAVEENVDLKHTGAVLKGPFSRYDYQRQPDSGISSIRSFKTILPAAAQDVYYRDEIGNVSTSHLLILDDSVEMEIRPRFPLFGGWKTHYIVGYNLPSYEYLYNLGDQYALKMRFVDHVFDEQVIDSLTVKIILPEGAKNIEIDSPYEISRAPDELHYTYLDTFGRPVIVAYKKNLVEQHIQDIVVHYTFNKVLMLQEPLLVVAAFYILFFTVIIYVRLDFSITKDPAAEARMKVACITEQVLTLVNKRIGLYRHFDETVNRYKQSRDISTLNSGKKSLETEHKALTSEIALLQSRLKTEGSDLCDRVSEMQKLDAQVKELVLKSAVEAERLVAGKLKKDTYIENEKLISGKRQELVTKIDHILDAL
binds	DDOST (protein, UniProt P39656 43-456) SGPRTLVLLDNLNVRETHSLFFRSLKDRGFELTFKTADDPSLSLIKYGEFLYDNLIIFSPSVEDFGGNINVETISAFIDGGGSVLVAASSDIGDPLRELGSECGIEFDEEKTAVIDHHNYDISDLGQHTLIVADTENLLKAPTIVGKSSLNPILFRGVGMVADPDNPLVLDILTGSSTSYSFFPDKPITQYPHAVGKNTLLIAGLQARNNARVIFSGSLDFFSDSFFNSAVQKAAPGSQRYSQTGNYELAVALSRWVFKEEGVLRVGPVSHHRVGETAPPNAYTVTDLVEYSIVIQQLSNGKWVPFDGDDIQLEFVRIDPFVRTFLKKKGGKYSVQFKLPDVYGVFQFKVDYNRLGYTHLYSSTQVSVRPLQHTQYERFIPSAYPYYASAFSMMLGLFIFSIVFLHMKEKEKSD
